This is one part of the list.

The target of the test is T1, OsSMF1 (Oryza sativa, UniProt Q6ZLB0 1-436).
T1 sequence: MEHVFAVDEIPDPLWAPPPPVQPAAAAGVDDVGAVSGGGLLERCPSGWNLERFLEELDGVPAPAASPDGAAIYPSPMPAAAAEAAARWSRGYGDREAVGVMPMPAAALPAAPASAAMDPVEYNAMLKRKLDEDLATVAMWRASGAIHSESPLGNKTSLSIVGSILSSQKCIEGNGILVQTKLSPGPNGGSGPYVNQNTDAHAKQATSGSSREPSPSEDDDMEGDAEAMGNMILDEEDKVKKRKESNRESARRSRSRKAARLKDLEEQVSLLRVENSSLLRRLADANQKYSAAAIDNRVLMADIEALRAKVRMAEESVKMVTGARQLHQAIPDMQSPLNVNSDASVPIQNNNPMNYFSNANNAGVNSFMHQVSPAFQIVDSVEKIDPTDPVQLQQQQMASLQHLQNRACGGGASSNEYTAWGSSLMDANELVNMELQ
Description: protein-binding microarray (RPBM); PBS, 2% BSA, 51.3 ng/ul salmon testes DNA, 50 uM zinc acetate, 200 nM TF, 25 C, 1 h; high values mean tight binding. The conditions noted are these: protein: recombinant; tags: N-terminal polyhistidine and DsRed monomer fusion (pET32a); chain copies: 2; label: CyDye5-dUTP incorporated in the synthesized complementary strand; 3' TTTTT single-stranded linker to array surface; dsDNA, one strand shown. Summed up: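 Using Ni–NTA, transcription factors fused N-terminally to polyhistidine and DsRed were purified after expression in E. coli BL21-CodonPlus. These were incubated at 200 nM with a blocked, double-stranded custom Agilent array for 1 h at 25 °C in a buffer containing 50 µM zinc acetate, and the array was washed. The binding signal is per-feature fluorescence intensity (arbitrary units) on an Axon 4000B scanner.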
As to “CAGGCACGGTGGTCGGCGTCATGCGGGGCTGCTCGGCTAGCGGAGTCACCTAGTGCAG”, the binding signal was 3420 fluorescence intensity (a.u.). Take “TTTCCTTTATTAGCTCAGCAAGAGCAGCTCTAGCGTGGCACGGAGTCACCTAGTGCAG”: the binding signal was 4470 fluorescence intensity (a.u.). With “AACTGCTATATAAATTGTTGCCACCACGCAGCGACAGGTGCGGAGTCACCTAGTGCAG” the figure was 4220 fluorescence intensity (a.u.); with “AGTTGCTGACATGTGAGCCCCACTTGCTAACTCAGCAAAGCGGAGTCACCTAGTGCAG”, 4650 fluorescence intensity (a.u.); with “AGAGAGTGGCTGAGGTGAGCTGTGTAGGGTGGGGTTTCCGCGGAGTCACCTAGTGCAG”, 3740 fluorescence intensity (a.u.).

With “CCATATGGCCATCTATACGCTCATCCACTGGCACGTCATCCGGAGTCACCTAGTGCAG”, the binding signal was 9890 fluorescence intensity (a.u.). Then “TACCCGGGACGTGACACGTCACCATTATTCTGTTGTCAACCGGAGTCACCTAGTGCAG”, with 13700 fluorescence intensity (a.u.).

As to “AGCATCCGAATCCGGCCACCTCATCATCTCGCCTCGCTTCCGGAGTCACCTAGTGCAG”, the binding signal is 7340 fluorescence intensity (a.u.).

Consider “TTAATCGTCCACACGTCACTCTCCTTTGATCCGAAGCTCACGGAGTCACCTAGTGCAG”, for which the binding signal was 15600 fluorescence intensity (a.u.).

For the sequence “AGGGACCCAAACCGACCAGTCACCAACTCACCATCCACCCCGGAGTCACCTAGTGCAG”, the binding signal was 3850 fluorescence intensity (a.u.). For the sequence “TAGGCTGGTGTTGATGTTCTTTGATTCGGTATAAATCAATCGGAGTCACCTAGTGCAG”, the binding signal was 3290 fluorescence intensity (a.u.).

Take “CCGAATTATGGAGATCCACGGACACCCATGCTCCCACGTGCGGAGTCACCTAGTGCAG”: the binding signal is 3170 fluorescence intensity (a.u.). With “ACTGTATACTCCCCAAATTCCGTCATGGCGATGGCACTGTCGGAGTCACCTAGTGCAG” the figure was 3550 fluorescence intensity (a.u.); with “AACAGGATCCATACTGTTTAACTACATATCTTGGAATCTACGGAGTCACCTAGTGCAG”, 4920 fluorescence intensity (a.u.); with “CGGGCACCGTGATGTAATAGTAATACCACGCCGAATACACCGGAGTCACCTAGTGCAG”, 3150 fluorescence intensity (a.u.).

For “TTTTCCTTGTAACGAACATCTCATCATCATCATCAGCTGACGGAGTCACCTAGTGCAG”, the binding signal is 5290 fluorescence intensity (a.u.). With “GTGGCCTGCTCCCGCGTCGCAGCCACCGCCGCCACCTCGTCGGAGTCACCTAGTGCAG” the figure was 3540 fluorescence intensity (a.u.); with “TTGTTTTGTAAAGCACGTCATCACTATTTAGGTGGAATATCGGAGTCACCTAGTGCAG”, 11200 fluorescence intensity (a.u.); with “TGAGCCCATGTATCGAGAGATGATCATCATATGACGACGTCGGAGTCACCTAGTGCAG”, 3770 fluorescence intensity (a.u.).

Turning to “AAGCGACGGATATCGGGAGTCGAACGTCCCTCTGACGTAGCGGAGTCACCTAGTGCAG”, the binding signal is 5310 fluorescence intensity (a.u.). Then “GCGCATGACAACCCGCGCCACGCGCACACGCACACCCACCCGGAGTCACCTAGTGCAG”, with 4530 fluorescence intensity (a.u.); and “ATCCCTCCCTACCCACACCTCATCAGGTATTCTGCTTTATCGGAGTCACCTAGTGCAG”, with 3520 fluorescence intensity (a.u.); and “CAGTTCTTAAACTTGTAAAGTTGTGTCATATACCACATTACGGAGTCACCTAGTGCAG”, with 39600 fluorescence intensity (a.u.).

Regarding “CCTCCTCCTCCTCCTCCACGCTTCCGCAAATTTCCGATCTCGGAGTCACCTAGTGCAG”, the binding signal was 3780 fluorescence intensity (a.u.).

Consider “TATATAAGCCTCACCAGAACTGACATATGCTGAGTCTGCACGGAGTCACCTAGTGCAG”, for which the binding signal is 3350 fluorescence intensity (a.u.). With “ACATATATAATGGCAGTGTGGCGTGCGGTGCGTGGGTGGTCGGAGTCACCTAGTGCAG” the figure was 3280 fluorescence intensity (a.u.); with “AGAGAGAATGACATGTGGGTCCCACATGCTGACTCAACGGCGGAGTCACCTAGTGCAG”, 10900 fluorescence intensity (a.u.).

Consider “CGTGTTGTTCTTATATACGTGTTCTAAAAGTTGACGAGCGCGGAGTCACCTAGTGCAG”, for which the binding signal was 3930 fluorescence intensity (a.u.).

Regarding “GGCGCACCGTCACGAACCGCATCGGTCCAGCGAGCTATCACGGAGTCACCTAGTGCAG”, the binding signal was 3560 fluorescence intensity (a.u.). With “TGATCCTCATGTGCAGTTGAGTCACTGATATGTGGACCACCGGAGTCACCTAGTGCAG” the figure was 5990 fluorescence intensity (a.u.); with “GATTGTTTAGTGGCCCGTATCATAAGACCGGCCACGTCGTCGGAGTCACCTAGTGCAG”, 6910 fluorescence intensity (a.u.). Then “GAGATTATTCACAGGTAGCATGACGCACCACAATCTCCGCCGGAGTCACCTAGTGCAG”, with 5320 fluorescence intensity (a.u.). With “GAGATATATCCAGATTCATCTCCATACCGTGTCTCTAGATCGGAGTCACCTAGTGCAG” the figure was 3160 fluorescence intensity (a.u.); with “CACCTCTGCCGCTGCTCCAAATCGTGTCACTGCTCCTCACCGGAGTCACCTAGTGCAG”, 6340 fluorescence intensity (a.u.); with “ATTACATGAAATATGCATACTCCTTTATGGAGAGACAGTGCGGAGTCACCTAGTGCAG”, 26800 fluorescence intensity (a.u.).

In the case of “TCCCAGTTGAGTTGCACACGCACGCACGCCTCGCCACCCCCGGAGTCACCTAGTGCAG”, the binding signal was 4220 fluorescence intensity (a.u.). For the sequence “ACAAATGACGCATTCCCCGACATTCCATACTTGCTCGTCACGGAGTCACCTAGTGCAG”, the binding signal was 6020 fluorescence intensity (a.u.).

On to “CTAATGCTCATCTTGACACGCAATTTATATGCATTCATATCGGAGTCACCTAGTGCAG”, for which the binding signal was 4430 fluorescence intensity (a.u.). With “TCCTTTGACCAAATCCGAAACTACCAATGTCATGTTCACCCGGAGTCACCTAGTGCAG” the figure was 3150 fluorescence intensity (a.u.).

For “CCTTCCTGACACCACCCGCCCACCACAGCTTCCCGTTCCTCGGAGTCACCTAGTGCAG”, the binding signal was 20100 fluorescence intensity (a.u.). Then “CGCCCTAATCCTCTACAGTAATCATGCTGACATGGTGGCTCGGAGTCACCTAGTGCAG”, with 4160 fluorescence intensity (a.u.). Turning to “TACCTGTGACCCACGTAATCAAGCCTGACGTTAGCACAATCGGAGTCACCTAGTGCAG”, the binding signal was 8980 fluorescence intensity (a.u.).

Values taken from publication PMC7819943, “Rice protein-binding microarrays: a tool to detect cis-acting elements near promoter regions in rice”.
